Measurements: patent US20030022826A1, “Use of synthetic peptides to induce tolerance to pathogenic T and B cell epitopes of autoantigens or infectious agents” (priority 1987, published 2003)
“Also recorded” adds a separate entry of the source. At least one peptide structure holds a part that was inferred or is arguable (an end, a ring closure or a residue). Some results were stated once for a whole list of compounds, not compound by compound.

Key:
[1] = tested on: Th-B peptide, T1-SP10IIIB; experiment: Endpoint ELISA anti-peptide antibody titers in chimpanzees immunized with HIV env synthetic peptides; format: in vivo, chimpanzee
Procedure: Immunizations: For goats, 3 mg of peptide were injected intramuscularly in each gluteal region in complete Freund's adjuvant (CFA) (1st dose), then incomplete Freund's adjuvant (IFA) (subsequent doses). […]
When neither peptide design induced neutralizing anti-HIVIIIB antibodies, the peptide doses were increased to approximately 0.5 mg/kg (30 mg/animal) and the right-hand side neutralizing sequence of HIVIIIB gp120 V3 loop (the (A) region) (Hart et al, Proc. Natl. Acad. Sci. USA 88:9448; Rusche et al Proc. Natl. Acad. Sci. USA 85:3198)) (Table 8) was added to the Th-B peptide to enhance the ability of this peptide to induce anti-HIVIIIB neutralizing antibodies. After 3 monthly injections with either ˜0.5 mg/kg (30 mg) Th-B or F-Th-B peptide, the animals were rested for 6 months, and then reimmunized with either F-Th-B or Th-B with sequences from HIVIIIB, or with the Th-B peptide containing HIV env gp120 V3 sequences from the HIVMN isolate.

[2] = tested on: recombinant HIVIIIB gp120; experiment: Endpoint ELISA antibody titers against recombinant HIVIIIB gp120 in immunized chimpanzees; format: in vivo, chimpanzee; conditions: animal 1070; months 4-7
[3] = tested on: Th-B peptide, T1-SP10IIIB(A); experiment: PBMC 3H-thymidine incorporation response to HIV Th-B peptide in immunized chimpanzees; format: in vivo, chimpanzee; conditions: months 1-8; Th-B in animals 884 and 1028, F-Th-B in animals 1045 and 1070
Excerpt: Acpm=experimental cpm—control cpm.

human JY B cells = experiment: Peptide binding to human cells, flow cytometry with anti-gp120 mab 0.5beta; format: cell-based; conditions: mean channel fluoresence, peptide 10 ug/ml
Procedure: Anti-gp120 momoclonal antibody was 0.5beta from the NIAID AIDS Research and Reference Reagent Program (Matsushita et al J. Virol. 62:2107, 1988). […] The amount of fluoresence was determined on a flow cytometer and fluoresence brightness was expressed as MFC=mean channel fluoresence.

JY B cells = experiment: Peptide entry into cells, intracytoplasmic fluorescence of acetone-fixed cells; format: cell-based, human
Procedure: Cells were incubated as descirbed in Table 13. After 21 hours at 37 degrees C., cytocentrifuge preparations of cells were prepared, acetone fixed, and reacted either with control mab P3x63 AgS or with anti-qp120 mab 0.5beta. Slides were read for either faint or bright intracytoplasmic fluoresence on a fluoresence microscope.

HIVIIIB = experiment: Anti-HIVIIIB neutralizing antibodies in immunized goats (reverse transcriptase inhibition); format: in vivo, HIV; conditions: 3 mg, CFA then IFA, after the fourth immunization
Procedure: FIG. 15. […] Goat 102A was immunized with 3 mg of the F-Th-B peptide, F-T1-SP10IIIB(A) and goat 104A was immunized with the HIVIIIB Th-B peptide, T1-SP10IIIB. Immunizations were in CFA (first dose) and IFA (doses 2-4). Neutralizing titers are titers at which reverse transcriptase production was inhibited by 90% or greater.
Immunizations: For goats, 3 mg of peptide were injected intramuscularly in each gluteal region in complete Freund's adjuvant (CFA) (1st dose), then incomplete Freund's adjuvant (IFA) (subsequent doses). For immunization of chimpanzees, varying doses of peptides were injected IM in IFA in a total volume of 4 cc, with 1 cc injected into right and left upper arms and thighs.
HIV Neutralization Assays: The ability of chimpanzee or goat serum antibodies to neutralize HIV was determined in syncytium inhibition assay and reverse transcriptase inhibition assay as previously described (Palker et al, J. Immunol. 142:3612 (1989); Palker et al, Proc. Natl. Acad. Sci. USA 85:1932 (1988)). Sera were heat inactivated (30 min, 56° C.) prior to each assay.

Th-B or F-Th-B peptides = experiment: PBMC 3H-thymidine incorporation in immunized goats; format: in vivo, goat; conditions: 3 mg, after the fourth immunization
immunizing peptide = experiment: Serum endpoint ELISA titers to immunizing peptide in goats; format: in vivo, goat; conditions: Th-B versus F-Th-B

Structure (SMILES): CC[C@H](C)[C@H](NC(=O)[C@@H](NC(=O)[C@@H](NC(=O)[C@H](Cc1ccccc1)NC(=O)[C@H](C)NC(=O)[C@H](CCCNC(=N)N)NC(=O)CNC(=O)[C@@H]1CCCN1C(=O)CNC(=O)[C@H](CCCNC(=N)N)NC(=O)[C@H](CCC(N)=O)NC(=O)[C@@H](NC(=O)[C@H](CCCNC(=N)N)NC(=O)[C@@H](NC(=O)[C@H](CO)NC(=O)[C@H](CCCCN)NC(=O)[C@H](CCCNC(=N)N)NC(=O)[C@@H](NC(=O)[C@H](CC(N)=O)NC(=O)[C@H](CC(N)=O)NC(=O)[C@H](CC(N)=O)NC(=O)[C@@H]1CCCN1C(=O)[C@H](CCCNC(=N)N)NC(=O)[C@@H](NC(=O)[C@H](CS)NC(=O)[C@H](C)NC(=O)[C@H](Cc1ccc(O)cc1)NC(=O)[C@H](CCSC)NC(=O)[C@H](C)NC(=O)[C@H](CCCCN)NC(=O)CNC(=O)[C@@H](NC(=O)[C@H](CCC(=O)O)NC(=O)[C@H](CCC(N)=O)NC(=O)[C@H](Cc1c[nH]c2ccccc12)NC(=O)[C@H](CCSC)NC(=O)[C@H](CC(N)=O)NC(=O)[C@@H](NC(=O)[C@@H](NC(=O)[C@H](CCC(N)=O)NC(=O)[C@H](CCCCN)NC(=O)[C@H](CC(C)C)NC(=O)[C@H](Cc1ccccc1)NC(=O)CNC(=O)[C@H](CC(C)C)NC(=O)[C@H](Cc1ccccc1)NC(=O)[C@H](CC(C)C)NC(=O)[C@H](C)NC(=O)CNC(=O)[C@@H](NC(=O)CNC(=O)[C@@H](NC(=O)[C@H](C)N)C(C)C)[C@@H](C)CC)[C@@H](C)CC)[C@@H](C)CC)C(C)C)[C@@H](C)O)[C@@H](C)O)[C@@H](C)CC)[C@@H](C)CC)C(C)C)[C@@H](C)O)C(=O)O [F-T1-SP10IIIB(A)]
- tolerance to T1-SP10IIIB(A) challenge ([1]; animals immunized with F-T1-SP10IIIB(A), challenged at month 16 with T1-SP10IIIB(A) in IFA): tolerant
- Reciprocal of ELISA Titer ([1]; chimpanzee 1045, month 2): 0
- Reciprocal of ELISA Titer ([1]; chimpanzee 1045, month 3): 0
- Reciprocal of ELISA Titer ([1]; chimpanzee 1045, month 4): 0
- Reciprocal of ELISA Titer ([1]; chimpanzee 1045, month 5): 1,600
- Reciprocal of ELISA Titer ([1]; chimpanzee 1045, month 6): 25,600
- Reciprocal of ELISA Titer ([1]; chimpanzee 1045, month 7): 25,600
- Reciprocal of ELISA Titer ([1]; chimpanzee 1045, month 8): 6,400
- Reciprocal of ELISA Titer ([1]; chimpanzee 1045, month 9 (rest)): 3,200
- Reciprocal of ELISA Titer ([1]; chimpanzee 1045, month 10 (rest)): 800
- Reciprocal of ELISA Titer ([1]; chimpanzee 1045, month 11 (rest)): 800
- Reciprocal of ELISA Titer ([1]; chimpanzee 1045, month 12 (rest)): 1,600
- Reciprocal of ELISA Titer ([1]; chimpanzee 1045, month 13 (rest)): 200
- Reciprocal of ELISA Titer ([1]; chimpanzee 1045, month 14): 200
- Reciprocal of ELISA Titer ([1]; chimpanzee 1045, month 15): 800
- Reciprocal of ELISA Titer ([1]; chimpanzee 1070, month 2): 0
- Reciprocal of ELISA Titer ([1]; chimpanzee 1070, month 3): 0
- Reciprocal of ELISA Titer ([1]; chimpanzee 1070, month 4): 800
- Reciprocal of ELISA Titer ([1]; chimpanzee 1070, month 5): 200
- Reciprocal of ELISA Titer ([1]; chimpanzee 1070, month 6): 12,800
- Reciprocal of ELISA Titer ([1]; chimpanzee 1070, month 7): 12,800
- Reciprocal of ELISA Titer ([1]; chimpanzee 1070, month 8): 12,800
- Reciprocal of ELISA Titer ([1]; chimpanzee 1070, month 9 (rest)): 6,400
- Reciprocal of ELISA Titer ([1]; chimpanzee 1070, month 10 (rest)): 800
- Reciprocal of ELISA Titer ([1]; chimpanzee 1070, month 11 (rest)): 1,600
- Reciprocal of ELISA Titer ([1]; chimpanzee 1070, month 12 (rest)): 800
- Reciprocal of ELISA Titer ([1]; chimpanzee 1070, month 13 (rest)): 200
- Reciprocal of ELISA Titer ([1]; chimpanzee 1070, month 14): 400
- Reciprocal of ELISA Titer ([1]; chimpanzee 1070, month 15): 800
- immunogenicity in chimpanzees (antibody response) ([1]; chimpanzees, low (0.1 mg/kg) or high (0.5 mg/kg) doses in IFA): not as immunogenic; also recorded: did not induce antibody titers as high or as of long duration
- peak titer to gp120 [2]: 0
- PBMC 3H-thymidine incorporation [3]: ≤ 100,000 Δcpm/10^6 cells
- MFC 4 Degrees C., 1 Hr. (human JY B cells; 4 degrees C, 1 hour): 82.8
- MFC 37 Degrees C., 22 Hr. (human JY B cells; 37 degrees C, 22 Hr.): 36.7
- detection of peptide inside the JY B cells (JY B cells; 10 ug/ml of peptide for 21 hours at 37 degrees C): could be detected inside the JY B cells
- % Intracytoplasmic Positive, bright (JY B cells; Anti-gp120 mab 0.5beta, bright intracytoplasmic fluoresence, peptide 10 μg/ml, 21 hours at 37 degrees C): 24%
- % Intracytoplasmic Positive, faint (JY B cells; Anti-gp120 mab 0.5beta, faint intracytoplasmic fluoresence, peptide 10 μg/ml, 21 hours at 37 degrees C): 76%
- % Intracytoplasmic Positive (JY B cells; Control antibody (mab P3x63 AgS), peptide 10 μg/ml, 21 hours at 37 degrees C): 0%
- induction of serum anti-HIV neutralizing antibodies (HIVIIIB): induced anti-HIV neutralizing antibodies in goats
- induction of serum anti-HIV neutralizing antibodies (HIVIIIB; listed as F-Th-B): capable of inducing serum anti-HIVIIIB neutralizing antibodies
- PBMC 3H-thymidine incorporation in vitro (Th-B or F-Th-B peptides): ≥ 500,000 Δcpm/120^6 cells
- serum endpoint ELISA titers of antibodies to immunizing peptide (immunizing peptide): the same
